Legend:
MCF-7 cancer cell line = assay: Sulforhodamine-B cytotoxicity assay, MCF-7; type: cell-based, human; settings: IC50 non-tumor cell line (MCF-10A)/IC50 MCF-7
Procedure: (§1) To assess the effect of the different drugs on cell viability we used the sulforhodamine-B colorimetric assay. Cells were resuspended and seeded at a density of 5 × 10^3 cells/well onto 12-well plates kept growing for 24 h. After that, the compounds were added at different concentrations to the cells (0.5, 0.7, 1, 2, 5, and 10 μM) (Figure 1). After 72 h treatment, the medium was discarded and fresh medium and treatment was added. Cells were maintained for 3 days more with the treatment. Finally, they were processed as previously described ([Boulaiz et al., 2003b]) using a Titertek Multiscan apparatus (Flow Laboratories, Irvine, United Kingdom) at 492 nm. We used the cell number for each cell stock before each cell growth experiment to set the linearity of the sulforhodamine-B assay. To calculate the IC50 values we used semilogarithmic dose–response curves to make a linear interpolation. All of the experiments were performed in triplicate wells for each treatment and were repeated at least twice.

MCF-7TG cancer cell line = assay: Sulforhodamine-B cytotoxicity assay, MCF-7TG (gef-expressing); type: cell-based, human; settings: for Therapeutic index (TI) MCF-7TG: IC50 non-tumor cell line (MCF-10A)/IC50 MCF-7TG; for decrease of the IC50 (improved antiproliferative effect) in presence of the gef gene: MCF-7TG versus MCF-7; for enhanced chemosensitivity in the presence of gef gene: MCF-7TG versus MCF-7 IC50
Excerpt: The breast cancer cell line MCF-7 was kindly provided by Dr. N. Olea of the Sánchez Mora Tumoural Biology Institute (University Hospital of Granada). The MCF-7TG cell line, a gef-expressing breast cancer cell line controlled by a mouse mammary tumor virus promoter and inducible by dexamethasone (Dex) was derivates from MCF-7 cells following methodology previously described by us ([Boulaiz et al., 2003b]). A selected MCF-7pMAMneo empty vector positive clone was also used. Non-tumoral breast cell line MCF-10A (ATCC: CRL-10317) was provided by the Cell Bank of the University of Granada (Granada, Spain). MCF-7 cells were cultured in a humidified atmosphere at 37°C with 5% CO2 and Dulbecco’s modified Eagle Medium (DMEM) (Gibco, Grand Island, NY, United States) with 10% heat-inactivated fetal bovine serum (FBS) (Gibco), 2.7% sodium bicarbonate, 2% L-glutamine, 1% Hepes buffer, 500 mg/L ampicillin and 40 mg/L gentamicin. MCF-7TG cells were grown in the same medium described above supplemented by 200 μg/ml geneticin G418 and 1μM Dex to induce gef gene expression. MCF-10A grown in DMEM/F12 medium with 5% horse serum (HS), 0.02 μg/ml epithelial growth factor (EGF), 0.5 μg/ml hydrocortisone, 100 ng/ml cholera toxin and 0.01 μg/ml insulin.
as §1

| Structure (SMILES) | Therapeutic index (TI) MCF-7 (MCF-7 cancer cell line) | Therapeutic index (TI) MCF-7TG (MCF-7TG cancer cell line) | decrease of the IC50 (improved antiproliferative effect) in presence of the gef gene (MCF-7TG cancer cell line) | enhanced chemosensitivity in the presence of gef gene (MCF-7TG cancer cell line) |
| --- | --- | --- | --- | --- |
| O=[N+]([O-])c1ccccc1S(=O)(=O)N1CC(n2cnc3nc(Cl)nc(Cl)c32)OCc2ccccc21 (centres unmarked) [FC-30b2] | 1.28 | 5.5 | 76.77% | 4.31 fold |
| O=S(=O)(c1ccccc1NO)N1CC(n2cnc3c(Cl)nc(Cl)nc32)OCc2ccccc21 (centres unmarked) [FC-29d] | 5.24 | 7.032 | – | 1.08 fold |
| Nc1ccccc1S(=O)(=O)N1CC(n2cnc3c(Cl)nc(Cl)nc32)OCc2ccccc21 (centres unmarked) [FC-29b] | 0.8 | 2.12 | 62.15% | 2.65 fold |
| COC(CN(c1ccccc1CO)S(=O)(=O)c1ccc([N+](=O)[O-])cc1)n1cnc2c(Cl)nc(Cl)nc21 (centres unmarked) [ACG-812c-F1] | 1.85 | 1.99 | 7.211% | 1.34 fold |
| O=[N+]([O-])c1ccccc1S(=O)(=O)N1CC(n2cnc3c(Cl)nc(Cl)nc32)OCc2ccccc21 (centres unmarked) [FC-26c] | 3.53 | 14.13 | 75% | 4 fold |
| O=[N+]([O-])c1ccc(S(=O)(=O)N2CC(n3cnc4c(Cl)nc(Cl)nc43)OCc3ccccc32)cc1 (racemic) [Bozepinib, (R,S)-2,6-dichloro-9-[1-(p-nitrobenzenesulfonyl)-1,2,3,5-tetrahydro-4,1-benzoxazepine-3-yl]-9H-purine] | 5.14 | 11.30 | 54.55% | 2.2 fold |

Reference: PMC6070671, “Enhancement of Tumor Cell Death by Combining gef Gene Mediated Therapy and New 1,4-Benzoxazepin-2,6-Dichloropurine Derivatives in Breast Cancer Cells” (Frontiers in Pharmacology, 2018)
